Consider 2 sequences from publication PMC12392098.

Sequences of proteins named here, by UniProt entry; tags and fusion partners are left off. Residues count along the entry.
UniProt Q9Y543, 13-70: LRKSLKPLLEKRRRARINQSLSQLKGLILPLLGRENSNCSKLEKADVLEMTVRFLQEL
UniProt Q99929, 50-102: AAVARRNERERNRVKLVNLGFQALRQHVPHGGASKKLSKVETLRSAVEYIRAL

For at least one entry, the source does not settle the construct or the ends of the probe. At least one verdict rests on a figure or table, not on a statement of the authors.

The target in series [1] is HES2 DBD wild type (human) (UniProt Q9Y543). The series is described as follows: EMSA (fluorescent). As to conditions: 300 nM protein, 166.67 nM probe, bound-band marker for SELEX; 32P EMSA: ~50 nM probe, 0.5/1/2 uM protein, 30 min, reagents as in Feng et al., gel at 4 C; recombinant protein; protein details: N-terminal 6xHis. For orientation: In EMSA bound probe runs differently from free probe, usually more slowly.

Series [2] addresses ASCL2 DBD wild type (human) (UniProt Q99929). Nature of the series: EMSA (fluorescent). The settings on record: 300 nM protein, 166.67 nM probe, bound-band marker for SELEX; 32P EMSA: ~50 nM probe, 0.5/1/2 uM protein, 30 min, reagents as in Feng et al., gel at 4 C; recombinant protein; protein details: N-terminal 6xHis, mScarlet fusion.

In the case of “CTCTCCTCCGTCAACACGTGTTGAGCAGCGCAGTCGTATGCCGTCTTCTGCTTG (double strand) [HES2 high-affinity fluorescent probe]”, the binding result in series [1] was “binds”.

On to “CTCTCCTCCGTCAACAGCTGTTGAGCAGCGCAGTCGTATGCCGTCTTCTGCTTG (double strand) [ASCL2 high-affinity fluorescent probe]”, for which, in series [2], the binding result was “binds”.
